Results published in the supplement of paper PMC10849652.
The other results are listed elsewhere or left out.

Sequences of proteins named here, by UniProt entry; tags and fusion partners are left off. A change or cut given only in a name is not applied to a line headed by its entry.
UniProt P68402: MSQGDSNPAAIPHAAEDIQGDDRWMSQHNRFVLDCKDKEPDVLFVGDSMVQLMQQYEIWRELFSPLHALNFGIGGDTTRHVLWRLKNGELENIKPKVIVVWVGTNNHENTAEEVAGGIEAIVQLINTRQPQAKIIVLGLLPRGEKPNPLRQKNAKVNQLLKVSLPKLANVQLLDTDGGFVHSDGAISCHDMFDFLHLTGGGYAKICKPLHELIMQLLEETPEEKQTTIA
UniProt Q9H300: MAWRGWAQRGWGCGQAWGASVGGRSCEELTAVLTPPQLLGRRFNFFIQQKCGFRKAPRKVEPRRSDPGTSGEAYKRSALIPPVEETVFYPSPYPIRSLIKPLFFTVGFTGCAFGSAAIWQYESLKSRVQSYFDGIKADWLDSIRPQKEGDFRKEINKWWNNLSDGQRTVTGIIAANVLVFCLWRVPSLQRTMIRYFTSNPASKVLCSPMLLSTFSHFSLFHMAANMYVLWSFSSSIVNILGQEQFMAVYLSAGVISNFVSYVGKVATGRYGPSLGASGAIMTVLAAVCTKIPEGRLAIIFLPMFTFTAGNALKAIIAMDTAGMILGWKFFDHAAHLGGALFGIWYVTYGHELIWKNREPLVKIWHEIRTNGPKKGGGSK
UniProt Q9BPZ3: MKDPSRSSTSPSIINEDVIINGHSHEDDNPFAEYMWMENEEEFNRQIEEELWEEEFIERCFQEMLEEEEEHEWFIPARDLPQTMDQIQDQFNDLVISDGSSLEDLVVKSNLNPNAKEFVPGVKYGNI
UniProt Q9NRP0: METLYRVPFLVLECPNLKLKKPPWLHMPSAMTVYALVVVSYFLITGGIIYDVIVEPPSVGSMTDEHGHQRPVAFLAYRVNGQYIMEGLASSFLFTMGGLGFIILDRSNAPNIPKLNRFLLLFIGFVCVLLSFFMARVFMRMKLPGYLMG
UniProt Q8TEW0: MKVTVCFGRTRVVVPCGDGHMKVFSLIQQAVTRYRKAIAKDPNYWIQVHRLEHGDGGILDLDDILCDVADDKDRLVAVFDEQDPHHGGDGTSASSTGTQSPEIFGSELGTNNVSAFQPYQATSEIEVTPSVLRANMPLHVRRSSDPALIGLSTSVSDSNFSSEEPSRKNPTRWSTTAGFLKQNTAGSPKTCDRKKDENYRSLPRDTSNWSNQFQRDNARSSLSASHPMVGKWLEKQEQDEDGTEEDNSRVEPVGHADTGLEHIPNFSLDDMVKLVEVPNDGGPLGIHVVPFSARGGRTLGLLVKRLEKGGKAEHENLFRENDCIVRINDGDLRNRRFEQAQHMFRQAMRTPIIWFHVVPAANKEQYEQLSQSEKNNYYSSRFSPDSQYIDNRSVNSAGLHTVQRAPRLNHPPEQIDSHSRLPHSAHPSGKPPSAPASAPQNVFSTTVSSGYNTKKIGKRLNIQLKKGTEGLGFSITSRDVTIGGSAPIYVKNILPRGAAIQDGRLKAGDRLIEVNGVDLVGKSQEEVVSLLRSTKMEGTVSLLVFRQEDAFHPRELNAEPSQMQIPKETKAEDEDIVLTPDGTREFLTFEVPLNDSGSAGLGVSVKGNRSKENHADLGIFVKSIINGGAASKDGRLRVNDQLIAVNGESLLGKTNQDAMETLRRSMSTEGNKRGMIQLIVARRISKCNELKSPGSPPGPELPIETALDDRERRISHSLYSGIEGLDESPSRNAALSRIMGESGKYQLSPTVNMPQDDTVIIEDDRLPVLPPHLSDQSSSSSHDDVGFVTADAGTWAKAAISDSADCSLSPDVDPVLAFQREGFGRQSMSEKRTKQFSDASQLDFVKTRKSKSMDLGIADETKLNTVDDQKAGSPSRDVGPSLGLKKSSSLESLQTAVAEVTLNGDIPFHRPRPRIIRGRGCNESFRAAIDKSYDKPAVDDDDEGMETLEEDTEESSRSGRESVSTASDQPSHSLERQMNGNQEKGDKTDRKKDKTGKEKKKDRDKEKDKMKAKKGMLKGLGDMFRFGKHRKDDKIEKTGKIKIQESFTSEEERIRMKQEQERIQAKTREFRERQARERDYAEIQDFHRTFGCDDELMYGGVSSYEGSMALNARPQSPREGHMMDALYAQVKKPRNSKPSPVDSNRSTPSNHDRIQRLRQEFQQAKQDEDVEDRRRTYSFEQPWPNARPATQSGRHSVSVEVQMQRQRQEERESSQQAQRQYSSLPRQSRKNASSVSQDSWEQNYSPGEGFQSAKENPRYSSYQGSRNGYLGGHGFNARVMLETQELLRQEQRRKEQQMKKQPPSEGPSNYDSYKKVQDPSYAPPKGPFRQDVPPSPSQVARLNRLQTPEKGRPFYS
UniProt Q8IVL6: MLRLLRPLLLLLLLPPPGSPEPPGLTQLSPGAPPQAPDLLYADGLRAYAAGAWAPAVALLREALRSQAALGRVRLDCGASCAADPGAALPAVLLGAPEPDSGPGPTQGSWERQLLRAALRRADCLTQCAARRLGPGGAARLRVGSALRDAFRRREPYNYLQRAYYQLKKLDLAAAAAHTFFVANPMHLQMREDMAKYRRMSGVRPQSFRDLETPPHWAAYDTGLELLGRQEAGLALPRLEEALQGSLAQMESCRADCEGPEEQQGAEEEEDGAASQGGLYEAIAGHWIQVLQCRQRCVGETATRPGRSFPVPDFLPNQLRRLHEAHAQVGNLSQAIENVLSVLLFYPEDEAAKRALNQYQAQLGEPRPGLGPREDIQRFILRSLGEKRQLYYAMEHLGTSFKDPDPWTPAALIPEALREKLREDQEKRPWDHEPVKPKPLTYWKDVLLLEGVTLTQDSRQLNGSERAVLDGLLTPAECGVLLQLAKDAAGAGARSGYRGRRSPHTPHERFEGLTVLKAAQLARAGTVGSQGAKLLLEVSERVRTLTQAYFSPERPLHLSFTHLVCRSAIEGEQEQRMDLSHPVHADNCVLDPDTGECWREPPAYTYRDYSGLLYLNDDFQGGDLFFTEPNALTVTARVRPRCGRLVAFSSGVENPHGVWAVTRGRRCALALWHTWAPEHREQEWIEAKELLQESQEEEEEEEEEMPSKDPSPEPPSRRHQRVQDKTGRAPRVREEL
UniProt Q13177, whole entry, looked up: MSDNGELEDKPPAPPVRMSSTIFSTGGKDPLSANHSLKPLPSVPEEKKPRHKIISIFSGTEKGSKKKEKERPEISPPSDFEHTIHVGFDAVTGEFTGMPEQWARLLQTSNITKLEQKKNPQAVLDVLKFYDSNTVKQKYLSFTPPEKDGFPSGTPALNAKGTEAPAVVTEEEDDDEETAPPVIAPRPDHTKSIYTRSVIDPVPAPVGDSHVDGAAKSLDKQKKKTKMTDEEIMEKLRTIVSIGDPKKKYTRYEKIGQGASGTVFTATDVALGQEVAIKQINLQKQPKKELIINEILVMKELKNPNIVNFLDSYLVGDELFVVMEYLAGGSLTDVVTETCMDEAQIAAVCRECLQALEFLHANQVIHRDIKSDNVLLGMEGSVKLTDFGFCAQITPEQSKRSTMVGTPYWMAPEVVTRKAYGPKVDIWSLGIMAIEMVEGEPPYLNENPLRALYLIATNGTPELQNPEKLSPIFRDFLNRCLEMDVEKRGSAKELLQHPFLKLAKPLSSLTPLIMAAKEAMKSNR
UniProt Q9P0S3: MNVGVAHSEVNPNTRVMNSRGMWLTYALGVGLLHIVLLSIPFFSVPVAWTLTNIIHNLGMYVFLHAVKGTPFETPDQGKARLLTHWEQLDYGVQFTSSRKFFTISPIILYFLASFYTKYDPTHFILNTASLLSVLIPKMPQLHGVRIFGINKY
UniProt O75781: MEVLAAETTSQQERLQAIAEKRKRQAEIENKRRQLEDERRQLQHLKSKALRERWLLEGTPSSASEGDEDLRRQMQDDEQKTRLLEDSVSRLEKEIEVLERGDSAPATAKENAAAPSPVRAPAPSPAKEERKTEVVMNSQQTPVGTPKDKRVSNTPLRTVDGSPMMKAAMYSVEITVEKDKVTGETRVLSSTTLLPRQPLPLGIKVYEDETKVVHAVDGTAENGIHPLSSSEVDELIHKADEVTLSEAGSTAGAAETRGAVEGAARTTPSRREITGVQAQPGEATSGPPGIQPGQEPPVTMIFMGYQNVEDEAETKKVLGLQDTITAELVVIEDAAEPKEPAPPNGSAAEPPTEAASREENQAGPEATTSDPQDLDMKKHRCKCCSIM
UniProt Q9UKK6: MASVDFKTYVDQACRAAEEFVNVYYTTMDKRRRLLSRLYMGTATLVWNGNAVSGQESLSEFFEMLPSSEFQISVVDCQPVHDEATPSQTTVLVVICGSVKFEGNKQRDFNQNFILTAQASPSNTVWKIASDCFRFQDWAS
UniProt Q9H4B0: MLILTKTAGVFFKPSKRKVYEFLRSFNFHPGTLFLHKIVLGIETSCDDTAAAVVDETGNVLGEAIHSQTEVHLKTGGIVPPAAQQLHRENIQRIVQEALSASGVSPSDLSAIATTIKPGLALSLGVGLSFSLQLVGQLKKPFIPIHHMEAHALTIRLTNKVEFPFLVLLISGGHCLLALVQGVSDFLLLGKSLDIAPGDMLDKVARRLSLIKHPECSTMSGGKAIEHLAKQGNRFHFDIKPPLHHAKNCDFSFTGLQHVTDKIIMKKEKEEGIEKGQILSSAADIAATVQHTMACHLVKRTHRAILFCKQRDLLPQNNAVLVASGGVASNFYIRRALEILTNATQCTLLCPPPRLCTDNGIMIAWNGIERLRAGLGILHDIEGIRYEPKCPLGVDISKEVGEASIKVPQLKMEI
UniProt Q5BJF6: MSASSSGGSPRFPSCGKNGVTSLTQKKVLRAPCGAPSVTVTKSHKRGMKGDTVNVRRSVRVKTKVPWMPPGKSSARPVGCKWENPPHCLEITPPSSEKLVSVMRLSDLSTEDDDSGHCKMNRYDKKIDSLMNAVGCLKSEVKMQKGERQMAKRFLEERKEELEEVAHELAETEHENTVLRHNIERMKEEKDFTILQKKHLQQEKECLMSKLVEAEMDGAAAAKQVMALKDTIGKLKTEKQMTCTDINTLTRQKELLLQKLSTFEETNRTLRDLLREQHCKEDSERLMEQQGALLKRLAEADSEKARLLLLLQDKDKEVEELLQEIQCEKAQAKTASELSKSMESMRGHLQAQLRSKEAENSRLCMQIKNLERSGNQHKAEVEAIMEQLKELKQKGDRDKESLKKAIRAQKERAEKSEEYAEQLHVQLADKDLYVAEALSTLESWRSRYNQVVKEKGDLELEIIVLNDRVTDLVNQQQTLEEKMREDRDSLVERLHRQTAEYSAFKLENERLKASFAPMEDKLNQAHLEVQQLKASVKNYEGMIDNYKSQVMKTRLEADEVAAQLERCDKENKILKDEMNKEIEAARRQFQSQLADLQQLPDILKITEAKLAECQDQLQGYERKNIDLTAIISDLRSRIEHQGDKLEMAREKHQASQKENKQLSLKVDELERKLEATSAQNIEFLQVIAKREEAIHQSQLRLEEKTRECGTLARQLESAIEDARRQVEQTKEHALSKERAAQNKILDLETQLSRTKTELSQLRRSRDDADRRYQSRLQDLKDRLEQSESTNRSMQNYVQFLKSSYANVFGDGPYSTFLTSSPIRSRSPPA
UniProt Q9Y5N6: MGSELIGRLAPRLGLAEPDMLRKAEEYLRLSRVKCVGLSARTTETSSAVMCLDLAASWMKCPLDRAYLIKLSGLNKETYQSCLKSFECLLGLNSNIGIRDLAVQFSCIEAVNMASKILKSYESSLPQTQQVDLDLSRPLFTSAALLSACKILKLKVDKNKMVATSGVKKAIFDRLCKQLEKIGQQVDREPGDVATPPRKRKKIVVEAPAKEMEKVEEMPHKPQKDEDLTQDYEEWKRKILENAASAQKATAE
UniProt Q13153, whole entry, looked up: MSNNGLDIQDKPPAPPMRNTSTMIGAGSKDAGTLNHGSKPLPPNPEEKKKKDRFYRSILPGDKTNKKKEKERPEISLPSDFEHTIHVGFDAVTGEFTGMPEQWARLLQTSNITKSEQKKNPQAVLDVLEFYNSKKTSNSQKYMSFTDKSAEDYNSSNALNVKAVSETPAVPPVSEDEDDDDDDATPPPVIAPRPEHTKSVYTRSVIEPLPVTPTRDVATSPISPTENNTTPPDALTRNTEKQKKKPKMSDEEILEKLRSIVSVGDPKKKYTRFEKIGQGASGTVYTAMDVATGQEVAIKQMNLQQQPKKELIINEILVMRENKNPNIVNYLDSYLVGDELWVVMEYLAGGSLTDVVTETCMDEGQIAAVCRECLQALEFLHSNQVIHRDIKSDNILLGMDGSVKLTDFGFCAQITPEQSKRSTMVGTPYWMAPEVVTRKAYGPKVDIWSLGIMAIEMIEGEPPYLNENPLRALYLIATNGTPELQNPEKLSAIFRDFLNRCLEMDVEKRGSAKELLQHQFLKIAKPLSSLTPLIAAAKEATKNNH

Legend:
Assay in all cases: log2 fold change, soluble protein after heating vs DMSO (PISA); higher = thermal stabilisation; K562 lysate, 10 uM; active = over 0.2 and 3.5 SD of the protein, either way, in both replicates (recomputed)
vemurafenib = compound: CCCS(=O)(=O)Nc1ccc(F)c(C(=O)c2c[nH]c3ncc(-c4ccc(Cl)cc4)cc23)c1F [vemurafenib]
How it was run: (§1)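 K562 pellets were dounce-homogenised in PBS pH 7.4 with 1 mM MgCl2, and the crude extract at 1 mg/mL protein was treated with 10 μM compound for 30 min. Aliquots were heated for 3 min across 48°C-58°C, pooled, and brought to 0.5% NP-40 at 4°C; soluble protein was the supernatant after 21,000xg for 90 min. Soluble protein was quantified by TMTpro 16plex LC-MS/MS with channel sums equalised, and reported as log2 fold change in thermal stability against DMSO controls, with values from duplicates.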

[1] = compound: CCCS(=O)(=O)Nc1ccc(F)c(C(=O)c2c[nH]c3ncc(Cl)cc23)c1F
How it was run: as §1

barasertib = compound: CCN(CCCOc1ccc2c(Nc3cc(CC(=O)Nc4cccc(F)c4)[nH]n3)ncnc2c1)CCOP(=O)(O)O [barasertib]
How it was run: as §1

[2] = compound: CC[C@@H]1C(=O)N(C)c2cnc(Nc3ccc(C(=O)NC4CCN(C)CC4)cc3OC)nc2N1C1CCCC1
How it was run: as §1

volasertib = compound: CC[C@@H]1C(=O)N(C)c2cnc(Nc3ccc(C(=O)N[C@H]4CC[C@H](N5CCN(CC6CC6)CC5)CC4)cc3OC)nc2N1C(C)C [volasertib]
How it was run: as §1

[3] = compound: CCn1c(C(=O)N(C2CC2)C2CC2)cc2c3c(ncn3C)c(Nc3cc(C)n(C)n3)nc21
How it was run: as §1

[4] = compound: CCn1cc(-c2ccnc3[nH]c(-c4cccc(CN(C)C)c4)cc23)c(-c2ccc(NC(=O)N(C)C)cc2)n1
How it was run: as §1

[5] = compound: CN1CCC(CNc2ccc3ncc(-c4cccc(OC(F)(F)F)c4)n3n2)CC1
How it was run: as §1

saracatinib = compound: CN1CCN(CCOc2cc(OC3CCOCC3)c3c(Nc4c(Cl)ccc5c4OCO5)ncnc3c2)CC1 [saracatinib]
How it was run: as §1

sotrastaurin = compound: CN1CCN(c2nc(C3=C(c4c[nH]c5ccccc45)C(=O)NC3=O)c3ccccc3n2)CC1 [sotrastaurin]
How it was run: as §1

alvocidib = compound: CN1CC[C@H](c2c(O)cc(O)c3c(=O)cc(-c4ccccc4Cl)oc23)[C@H](O)C1 [alvocidib]
How it was run: as §1

Tubastatin A = compound: CN1CCc2c(c3ccccc3n2Cc2ccc(C(=O)NO)cc2)C1 [Tubastatin A]
How it was run: as §1

[6] = compound: CNC(=O)C1=CC=CC=C1NC2=NC(=NC=C2Cl)NC3=C(C=C(C=C3)N4CCOCC4)OC
How it was run: as §1

defactinib = compound: CNC(=O)c1ccc(Nc2ncc(C(F)(F)F)c(NCc3nccnc3N(C)S(C)(=O)=O)n2)cc1 [defactinib]
How it was run: as §1

[7] = compound: CNc1nc(-c2ccc3c(N)n[nH]c3c2)cc(N2C[C@@H](C(=O)NC3CCCCC3)CC[C@H]2C)n1
How it was run: as §1

encorafenib = compound: COC(=O)N[C@@H](C)CNc1nccc(-c2cn(C(C)C)nc2-c2cc(Cl)cc(NS(C)(=O)=O)c2F)n1 [encorafenib]
How it was run: as §1

[8] = compound: COC(=O)[C@H](CCSC)NC(=O)C1=C(C=C(C=C1)NC[C@H](CS)N)C2=CC=CC=C2
How it was run: as §1

alisertib = compound: COc1cc(Nc2ncc3c(n2)-c2ccc(Cl)cc2C(c2c(F)cccc2OC)=NC3)ccc1C(=O)O [alisertib]
How it was run: as §1

[9] = compound: COc1cc2nc(-c3cc(F)ccc3O)nc(N[C@@H]3CNC[C@H]3C(C)(C)O)c2cc1OC
How it was run: as §1

gefitinib = compound: COc1cc2ncnc(Nc3ccc(F)c(Cl)c3)c2cc1OCCCN1CCOCC1 [gefitinib]
How it was run: as §1

Measured: log2 fold change

PAFAH2 (UniProt Q99487)
inactive: vemurafenib 0.078 | [1] -0.073 | barasertib 0.148 | [2] 0.052 | volasertib 0.022 | [3] -0.039 | [4] 0.043 | [5] 0.083 | saracatinib 0.018 | sotrastaurin -0.099 | alvocidib -0.05 | Tubastatin A 0.033 | [6] 0.02 | defactinib 0.129 | [7] 0.063 | encorafenib 0.021 | [8] -0.013 | alisertib 0.064 | [9] 0.3 | gefitinib 0

PAFAH1B2 (UniProt P68402)
inactive: vemurafenib 0.009 | [1] -0.047 | barasertib 0.093 | [2] -0.025 | volasertib 0.012 | [3] -0.053 | [4] -0.084 | [5] 0.037 | saracatinib 0.01 | sotrastaurin 0.042 | alvocidib -0.025 | Tubastatin A -0.033 | [6] -0.032 | defactinib 0.007 | [7] -0.004 | encorafenib -0.027 | [8] 0.028 | alisertib -0.076 | [9] -0.018 | gefitinib 0.042

PACSIN2 (UniProt Q9UNF0)
inactive: vemurafenib -0.017 | [1] 0.008 | barasertib 0.021 | [2] -0.015 | volasertib -0.007 | [3] 0.054 | [4] 0.05 | [5] -0.043 | saracatinib -0.013 | sotrastaurin -0.015 | alvocidib 0.023 | Tubastatin A -0.004 | [6] 0.028 | defactinib -0.004 | [7] -0.021 | encorafenib -0.004 | [8] 0.17 | alisertib -0.003 | [9] -0.012 | gefitinib 0.016

PARL (UniProt Q9H300)
inactive: vemurafenib 0.004 | [1] 0.033 | barasertib 0.048 | [2] -0.012 | volasertib 0.012 | [3] -0.012 | [4] -0.047 | [5] -0.026 | saracatinib -0.024 | sotrastaurin -0.02 | alvocidib 0.022 | Tubastatin A 0.02 | [6] 0.036 | defactinib 0.05 | [7] -0.044 | encorafenib -0.005 | [8] 0.057 | alisertib 0.006 | [9] -0.01 | gefitinib -0.052

PAIP2 (UniProt Q9BPZ3)
inactive: vemurafenib 0 | [1] -0.013 | [2] 0.039 | volasertib -0.018 | [3] 0.02 | [4] -0.043 | [5] -0.001 | saracatinib -0.081 | sotrastaurin -0.073 | alvocidib 0.009 | Tubastatin A 0.045 | [6] -0.03 | defactinib -0.056 | [7] 0.037 | encorafenib -0.092 | [8] 0.071 | alisertib -0.038 | [9] -0.049 | gefitinib -0.019
active: barasertib 0.272

OSTC isoform 2 (UniProt Q9NRP0)
inactive: vemurafenib 0.043 | [1] 0.02 | barasertib -0.012 | [2] 0.067 | volasertib 0.02 | [3] -0.034 | [4] 0.043 | [5] -0.074 | saracatinib -0.043 | sotrastaurin 0.005 | alvocidib -0.044 | Tubastatin A -0.083 | [6] 0.05 | defactinib 0.009 | [7] 0.031 | encorafenib 0.092 | [8] -0.081 | alisertib -0.065 | [9] -0.071 | gefitinib -0.031

PARD3 (UniProt Q8TEW0)
inactive: vemurafenib 0.145 | [1] -0.017 | barasertib -0.123 | [2] -0.009 | volasertib -0.016 | [3] -0.032 | [4] -0.147 | [5] -0.08 | saracatinib 0.016 | sotrastaurin 0.004 | alvocidib -0.035 | Tubastatin A -0.087 | [6] -0.021 | defactinib 0.144 | [7] -0.031 | encorafenib 0.007 | [8] 0.061 | alisertib -0.013 | gefitinib 0.04
active: [9] 0.438

P3H3 (UniProt Q8IVL6)
inactive: vemurafenib -0.161 | saracatinib 0.18 | [6] -0.181 | defactinib 0.095 | [7] 0.141

PAK2 (UniProt Q13177)
inactive: vemurafenib -0.005 | [1] -0.016 | barasertib -0.03 | [2] 0.025 | volasertib 0.016 | [3] -0.006 | [4] 0.062 | [5] -0.024 | saracatinib 0.008 | sotrastaurin 0.022 | alvocidib 0.022 | Tubastatin A 0.038 | [6] -0.005 | defactinib -0.007 | [7] 0.002 | encorafenib -0.014 | [8] -0.044 | alisertib -0.026 | [9] 0.007 | gefitinib 0.001

P4HA1 isoform 2 (UniProt P13674)
inactive: vemurafenib 0.015 | barasertib -0.02 | [2] 0.007 | [3] 0.055 | [4] -0.076 | [5] 0.081 | sotrastaurin 0.014 | alvocidib -0.13 | Tubastatin A -0.246 | [6] 0.108 | defactinib -0.037 | encorafenib 0.021 | [8] 0.003

OFD1 (UniProt O75665)
inactive: vemurafenib -0.043 | barasertib -0.285 | [2] -0.209 | [3] 0.048 | [4] 0.083 | [5] -0.157 | saracatinib 0.083 | alvocidib -0.001 | Tubastatin A -0.015 | defactinib -0.01 | [7] 0.092 | encorafenib 0.181 | [8] -0.218 | alisertib 0.286 | gefitinib -0.127

ORMDL1 (UniProt Q9P0S3)
inactive: vemurafenib -0.031 | barasertib 0.024 | [3] 0 | [4] 0.38 | [5] 0.078 | saracatinib 0.181 | sotrastaurin 0.006 | alvocidib -0.052 | Tubastatin A -0.052 | [6] 0.145 | defactinib 0.169 | [7] -0.02 | alisertib -0.067 | gefitinib 0.08

P4HA2 (UniProt O15460)
inactive: vemurafenib 0.007 | [1] -0.085 | barasertib 0.11 | [2] 0.055 | volasertib 0.06 | [3] -0.075 | [4] 0.061 | [5] -0.065 | saracatinib 0.052 | sotrastaurin -0.009 | alvocidib -0.008 | Tubastatin A 0.072 | [6] 0.042 | defactinib -0.045 | [7] -0.055 | encorafenib 0.028 | [8] -0.056 | [9] -0.039

PALM (UniProt O75781)
inactive: vemurafenib -0.05 | [1] -0.047 | barasertib 0.055 | [2] 0.062 | volasertib -0.019 | [4] -0.061 | [5] 0.101 | saracatinib 0.035 | sotrastaurin 0.048 | alvocidib -0.035 | [6] 0.051 | defactinib 0.078 | [7] 0.026 | encorafenib 0.004 | [8] 0.064 | alisertib 0.088 | [9] 0.056 | gefitinib 0.063

NXT1 (UniProt Q9UKK6)
inactive: vemurafenib 0.013 | [1] 0.056 | barasertib 0.377 | volasertib 0.032 | [3] 0.031 | [4] 0.2 | [5] 0.075 | alvocidib -0.006 | Tubastatin A 0.007 | [6] -0.044 | defactinib 0.041 | alisertib 0.058 | [9] 0.061 | gefitinib 0.131

OSGEPL1 (UniProt Q9H4B0)
inactive: vemurafenib 0.078 | [1] 0.009 | barasertib -0.159 | [2] -0.058 | volasertib 0.069 | sotrastaurin -0.017 | defactinib -0.082 | encorafenib -0.123 | [8] 0.039 | [9] 0.021

ODF2 (UniProt Q5BJF6)
inactive: vemurafenib -0.058 | barasertib 0.112 | [2] 0.121 | [3] 0.157 | [4] -0.107 | [5] -0.027 | saracatinib 0.039 | sotrastaurin 0.093 | alvocidib 0.129 | Tubastatin A 0.134 | [6] 0.034 | defactinib 0 | [7] -0.047 | encorafenib 0.014 | [8] 0.018 | alisertib -0.131 | gefitinib 0.003

ORC6 (UniProt Q9Y5N6)
inactive: vemurafenib -0.166 | barasertib 0.003 | [2] 0.098 | [3] 0.014 | [4] 0.226 | [5] -0.097 | saracatinib 0.036 | sotrastaurin -0.018 | alvocidib 0.097 | Tubastatin A -0.055 | [6] 0.048 | defactinib 0.004 | [7] 0.006 | encorafenib 0.026 | [8] 0.005 | alisertib -0.016 | gefitinib 0.02

PAK1 (UniProt Q13153)
inactive: vemurafenib -0.013 | [1] 0.001 | barasertib -0.001 | [2] -0.002 | volasertib 0.023 | [3] -0.011 | [4] 0.013 | [5] 0.06 | saracatinib 0 | sotrastaurin -0.054 | alvocidib -0.023 | Tubastatin A 0.026 | [6] 0.011 | defactinib -0.006 | [7] 0.044 | encorafenib -0.012 | [8] 0.023 | alisertib 0.016 | [9] 0.02 | gefitinib -0.06

Fetched one by one from the list above (2):
NXT1 (UniProt Q9UKK6)
inactive: vemurafenib 0.013 | [1] 0.056 | barasertib 0.377 | volasertib 0.032 | [3] 0.031 | [4] 0.2 | [5] 0.075 | alvocidib -0.006 | Tubastatin A 0.007 | [6] -0.044 | defactinib 0.041 | alisertib 0.058 | [9] 0.061 | gefitinib 0.131

ORC6 (UniProt Q9Y5N6)
inactive: vemurafenib -0.166 | barasertib 0.003 | [2] 0.098 | [3] 0.014 | [4] 0.226 | [5] -0.097 | saracatinib 0.036 | sotrastaurin -0.018 | alvocidib 0.097 | Tubastatin A -0.055 | [6] 0.048 | defactinib 0.004 | [7] 0.006 | encorafenib 0.026 | [8] 0.005 | alisertib -0.016 | gefitinib 0.02
